PubChem BioAssay AID686937, Drosophila RNAi Screening Center – 2013

- Screen: 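Genes in the fly needed for secretion of protein constitutively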 (primary screen)
- Cell system: Drosophila S2 cells expressing secreted horseradish peroxidase
- Knock-down reagent: long dsRNA against Drosophila genes
- Duration: about 5.5 days (5 days dsRNA, then 12 h reporter induction)
- Challenge: reporter expression induced after 5 days of dsRNA, read 12 h later; inducer not stated
- Measured: 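Chemiluminescent measurement of peroxidase in the medium 12 h after reporter induction, following 5 days of dsRNA, given as a z-score per plate; higher means more secretion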
- Direction: z-score: higher = more reporter secreted into medium
In all, the deposit lists about 23,000 reagents; below is an unselected part of those with a known target gene and a result. 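Reduced-secretion tags in replicate 1 do not always agree with the z-scores; no criterion for assigning the tags was given.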 Reagents against one gene are numbered here. Names joined by + are all predicted targets of the reagent. Further read-outs or replicates are left out here. Reagent sequences are not shown. The record does not give: the amount of reagent.

Vps26 — z-score, replicate 1: 0.9
CG30344 — z-score, replicate 1: 0.09
CG30287 — z-score, replicate 1: -0.03
CG14626 — z-score, replicate 1: 0.41
CG5793 + Obp93a — z-score, replicate 1: -0.25
crim — z-score, replicate 1: 0.15
CG8170 — z-score, replicate 1: 0.2
M6 — z-score, replicate 1: 0.08
CG11298 — z-score, replicate 1: -0.09
Rpn1 — z-score, replicate 1: -4.5; phenotype, replicate 1: reduced secretion
CG32706 + CG6999 — z-score, replicate 1: 0.48
CG6324 — z-score, replicate 1: 0.37
CG17715 — z-score, replicate 1: 0.46
Obp28a — z-score, replicate 1: 0.62
CG8191 + CG12379 — z-score, replicate 1: 0.33
Argl + CG9515 #1 — z-score, replicate 1: 0.27
Argl + CG9515 #2 — z-score, replicate 1: 0.5
Jhbp4 — z-score, replicate 1: 0.3
Orc1 — z-score, replicate 1: 0.76
CG42675 #1 — z-score, replicate 1: 0.42
CG42675 #2 — z-score, replicate 1: 0.47
Vps53 — z-score, replicate 1: -0.04
Ir56a — z-score, replicate 1: 0.25
CG6472 — z-score, replicate 1: 0.31
betaNACtes5 — z-score, replicate 1: 0.58
CG5021 — z-score, replicate 1: -0.13
Zip71B — z-score, replicate 1: -0.17
CAH6 — z-score, replicate 1: -2.03; phenotype, replicate 1: reduced secretion
CG14995 — z-score, replicate 1: -1.09
CG31482 — z-score, replicate 1: 0.19
ouib — z-score, replicate 1: 0.26
CG44153 #1 — z-score, replicate 1: 0.21
CG44153 #2 — z-score, replicate 1: 0.23
CG44153 #3 — z-score, replicate 1: -0.03
CG44153 #4 — z-score, replicate 1: -0.08
CG44153 #5 — z-score, replicate 1: -0.02
CG44153 #6 — z-score, replicate 1: 0.59
CG44153 #7 — z-score, replicate 1: 0.31
BomBc1 — z-score, replicate 1: 0.17
Imp #1 — z-score, replicate 1: 0.59
Imp #2 — z-score, replicate 1: 0.17
Imp #3 — z-score, replicate 1: 0.42
Imp #4 — z-score, replicate 1: 0.17
Tbp — z-score, replicate 1: -5.11; phenotype, replicate 1: reduced secretion
amrt — z-score, replicate 1: 0.41
Pnn — z-score, replicate 1: 0.32
CG17270 — z-score, replicate 1: 0.36
CG15651 — z-score, replicate 1: 0.05
pros #1 — z-score, replicate 1: 0.47
pros #2 — z-score, replicate 1: 0.15
pros #3 — z-score, replicate 1: 0.22

8 successive entries from above:
Argl + CG9515 #1 — z-score, replicate 1: 0.27
Argl + CG9515 #2 — z-score, replicate 1: 0.5
Jhbp4 — z-score, replicate 1: 0.3
Orc1 — z-score, replicate 1: 0.76
CG42675 #1 — z-score, replicate 1: 0.42
CG42675 #2 — z-score, replicate 1: 0.47
Vps53 — z-score, replicate 1: -0.04
Ir56a — z-score, replicate 1: 0.25
